Laboratory results reported in paper PMC6660665.
These are yes or no findings as the source states them, for the method shown. Some results given as binding are weak or reduced against the parent protein; the word gives no strength.

Molecular target: SleB C-terminal catalytic domain (SleB^Cat 125–253) (B. anthracis)
Assay: two-hybrid

Substance: SleB C-terminal catalytic domain (SleB^Cat 125–253) (from UniProt A0A6L8PLE1 125-253) (domain or fragment)
- binding: binds
